Measured values taken from the supplement of paper PMC11732987, “Enantioselective OTUD7B fragment discovery through chemoproteomics screening and high-throughput optimisation” (Communications Chemistry, 2025).
This is one part of the list. The data scatter; read single values as rough.

Amino acid sequences for entries named in this document (tags omitted). A change or cut given only in a name is not applied to a line headed by its entry. Residues count along the entry.
UniProt O43719: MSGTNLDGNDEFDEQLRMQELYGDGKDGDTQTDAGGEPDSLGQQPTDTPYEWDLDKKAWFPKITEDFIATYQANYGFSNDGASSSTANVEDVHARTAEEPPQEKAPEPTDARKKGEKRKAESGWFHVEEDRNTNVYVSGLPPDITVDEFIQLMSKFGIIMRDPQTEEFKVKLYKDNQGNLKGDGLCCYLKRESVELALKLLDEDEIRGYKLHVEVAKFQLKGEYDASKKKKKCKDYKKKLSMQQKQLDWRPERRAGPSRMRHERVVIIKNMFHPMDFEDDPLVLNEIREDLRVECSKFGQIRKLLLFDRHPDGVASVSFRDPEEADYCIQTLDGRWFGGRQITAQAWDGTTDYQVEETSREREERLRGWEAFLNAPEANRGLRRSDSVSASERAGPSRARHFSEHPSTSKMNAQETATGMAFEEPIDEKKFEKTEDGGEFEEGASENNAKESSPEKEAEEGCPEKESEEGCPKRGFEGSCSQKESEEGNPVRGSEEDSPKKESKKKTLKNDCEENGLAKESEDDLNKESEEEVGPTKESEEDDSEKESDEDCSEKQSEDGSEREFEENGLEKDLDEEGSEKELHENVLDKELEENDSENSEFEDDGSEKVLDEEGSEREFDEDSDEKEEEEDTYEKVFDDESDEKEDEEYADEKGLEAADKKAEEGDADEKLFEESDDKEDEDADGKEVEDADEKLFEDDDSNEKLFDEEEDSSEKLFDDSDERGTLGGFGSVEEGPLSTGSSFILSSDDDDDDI
UniProt Q8N201, whole entry, looked up: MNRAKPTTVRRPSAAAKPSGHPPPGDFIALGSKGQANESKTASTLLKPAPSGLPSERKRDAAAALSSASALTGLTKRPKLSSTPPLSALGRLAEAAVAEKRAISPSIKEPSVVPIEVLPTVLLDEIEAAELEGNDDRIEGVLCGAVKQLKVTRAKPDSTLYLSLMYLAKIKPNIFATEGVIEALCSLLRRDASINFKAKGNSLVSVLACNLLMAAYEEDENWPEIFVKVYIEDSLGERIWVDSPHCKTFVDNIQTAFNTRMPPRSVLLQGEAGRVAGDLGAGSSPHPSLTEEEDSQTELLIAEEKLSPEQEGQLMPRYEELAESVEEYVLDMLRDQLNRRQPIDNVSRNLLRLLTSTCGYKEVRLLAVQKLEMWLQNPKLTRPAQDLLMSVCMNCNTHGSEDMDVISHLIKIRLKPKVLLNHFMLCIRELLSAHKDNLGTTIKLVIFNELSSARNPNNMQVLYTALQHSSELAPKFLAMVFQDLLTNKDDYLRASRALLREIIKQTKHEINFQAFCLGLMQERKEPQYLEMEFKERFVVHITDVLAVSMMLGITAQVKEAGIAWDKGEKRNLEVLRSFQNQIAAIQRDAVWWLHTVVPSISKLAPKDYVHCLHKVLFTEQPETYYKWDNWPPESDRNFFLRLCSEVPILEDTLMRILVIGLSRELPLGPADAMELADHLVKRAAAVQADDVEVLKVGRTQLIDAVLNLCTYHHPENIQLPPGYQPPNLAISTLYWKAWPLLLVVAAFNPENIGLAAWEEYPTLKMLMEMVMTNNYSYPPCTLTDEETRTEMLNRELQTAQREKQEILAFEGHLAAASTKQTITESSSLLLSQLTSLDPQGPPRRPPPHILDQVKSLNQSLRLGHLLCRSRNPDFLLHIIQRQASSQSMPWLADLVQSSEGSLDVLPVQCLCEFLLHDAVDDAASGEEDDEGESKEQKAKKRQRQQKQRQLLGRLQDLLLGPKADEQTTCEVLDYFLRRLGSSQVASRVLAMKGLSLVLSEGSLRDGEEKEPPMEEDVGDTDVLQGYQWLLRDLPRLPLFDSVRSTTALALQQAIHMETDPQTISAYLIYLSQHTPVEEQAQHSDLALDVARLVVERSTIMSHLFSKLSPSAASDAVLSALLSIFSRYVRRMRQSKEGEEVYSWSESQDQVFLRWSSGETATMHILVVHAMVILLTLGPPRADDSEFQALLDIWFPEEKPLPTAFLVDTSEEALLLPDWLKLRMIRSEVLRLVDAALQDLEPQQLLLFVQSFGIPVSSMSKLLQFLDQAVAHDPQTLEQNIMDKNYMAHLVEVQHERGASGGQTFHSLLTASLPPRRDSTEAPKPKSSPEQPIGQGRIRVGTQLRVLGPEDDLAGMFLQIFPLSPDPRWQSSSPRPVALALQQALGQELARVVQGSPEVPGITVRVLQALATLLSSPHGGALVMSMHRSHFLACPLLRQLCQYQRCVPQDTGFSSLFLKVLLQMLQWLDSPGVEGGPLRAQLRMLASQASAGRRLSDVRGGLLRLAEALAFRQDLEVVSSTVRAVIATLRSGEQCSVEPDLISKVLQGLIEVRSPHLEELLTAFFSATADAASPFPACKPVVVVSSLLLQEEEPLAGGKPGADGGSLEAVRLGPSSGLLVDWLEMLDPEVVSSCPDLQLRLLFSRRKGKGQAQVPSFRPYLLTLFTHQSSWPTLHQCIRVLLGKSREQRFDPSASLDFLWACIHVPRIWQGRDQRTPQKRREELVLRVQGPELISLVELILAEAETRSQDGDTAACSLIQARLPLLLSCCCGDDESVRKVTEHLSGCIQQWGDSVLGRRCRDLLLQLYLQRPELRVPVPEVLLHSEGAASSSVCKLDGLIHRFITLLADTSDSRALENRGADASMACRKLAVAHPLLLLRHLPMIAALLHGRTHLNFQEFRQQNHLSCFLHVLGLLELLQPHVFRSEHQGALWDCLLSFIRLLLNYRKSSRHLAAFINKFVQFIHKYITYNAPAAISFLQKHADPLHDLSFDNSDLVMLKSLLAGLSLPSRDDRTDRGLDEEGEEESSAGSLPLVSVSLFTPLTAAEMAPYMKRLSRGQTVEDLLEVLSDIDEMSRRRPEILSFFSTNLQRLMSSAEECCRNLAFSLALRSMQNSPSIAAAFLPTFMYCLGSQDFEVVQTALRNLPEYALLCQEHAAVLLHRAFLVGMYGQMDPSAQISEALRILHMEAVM
UniProt O94829: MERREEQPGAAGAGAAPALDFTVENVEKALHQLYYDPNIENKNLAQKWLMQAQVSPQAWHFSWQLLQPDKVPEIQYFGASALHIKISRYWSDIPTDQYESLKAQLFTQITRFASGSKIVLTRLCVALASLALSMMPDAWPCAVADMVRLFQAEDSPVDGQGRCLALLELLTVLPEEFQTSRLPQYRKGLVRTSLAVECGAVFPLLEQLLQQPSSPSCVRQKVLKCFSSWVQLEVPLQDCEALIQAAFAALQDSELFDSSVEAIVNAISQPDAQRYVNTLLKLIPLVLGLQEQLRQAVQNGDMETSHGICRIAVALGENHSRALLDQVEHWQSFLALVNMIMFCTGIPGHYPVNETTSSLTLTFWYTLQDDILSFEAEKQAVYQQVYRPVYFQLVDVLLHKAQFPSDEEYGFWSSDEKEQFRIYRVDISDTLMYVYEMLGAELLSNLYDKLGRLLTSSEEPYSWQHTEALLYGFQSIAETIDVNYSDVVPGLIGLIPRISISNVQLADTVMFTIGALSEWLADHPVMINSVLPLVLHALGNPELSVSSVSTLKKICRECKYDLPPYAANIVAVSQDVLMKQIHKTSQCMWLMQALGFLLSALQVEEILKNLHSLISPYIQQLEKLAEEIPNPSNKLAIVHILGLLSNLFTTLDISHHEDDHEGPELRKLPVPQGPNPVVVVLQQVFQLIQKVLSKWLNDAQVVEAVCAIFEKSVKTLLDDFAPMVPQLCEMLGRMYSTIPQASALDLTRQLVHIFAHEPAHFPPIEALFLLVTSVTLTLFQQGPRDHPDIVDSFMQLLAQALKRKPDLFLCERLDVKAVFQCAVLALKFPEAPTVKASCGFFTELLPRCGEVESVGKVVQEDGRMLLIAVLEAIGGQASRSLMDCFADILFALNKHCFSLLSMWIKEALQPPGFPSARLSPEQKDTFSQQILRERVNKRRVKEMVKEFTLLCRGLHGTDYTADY
UniProt Q9Y2F5: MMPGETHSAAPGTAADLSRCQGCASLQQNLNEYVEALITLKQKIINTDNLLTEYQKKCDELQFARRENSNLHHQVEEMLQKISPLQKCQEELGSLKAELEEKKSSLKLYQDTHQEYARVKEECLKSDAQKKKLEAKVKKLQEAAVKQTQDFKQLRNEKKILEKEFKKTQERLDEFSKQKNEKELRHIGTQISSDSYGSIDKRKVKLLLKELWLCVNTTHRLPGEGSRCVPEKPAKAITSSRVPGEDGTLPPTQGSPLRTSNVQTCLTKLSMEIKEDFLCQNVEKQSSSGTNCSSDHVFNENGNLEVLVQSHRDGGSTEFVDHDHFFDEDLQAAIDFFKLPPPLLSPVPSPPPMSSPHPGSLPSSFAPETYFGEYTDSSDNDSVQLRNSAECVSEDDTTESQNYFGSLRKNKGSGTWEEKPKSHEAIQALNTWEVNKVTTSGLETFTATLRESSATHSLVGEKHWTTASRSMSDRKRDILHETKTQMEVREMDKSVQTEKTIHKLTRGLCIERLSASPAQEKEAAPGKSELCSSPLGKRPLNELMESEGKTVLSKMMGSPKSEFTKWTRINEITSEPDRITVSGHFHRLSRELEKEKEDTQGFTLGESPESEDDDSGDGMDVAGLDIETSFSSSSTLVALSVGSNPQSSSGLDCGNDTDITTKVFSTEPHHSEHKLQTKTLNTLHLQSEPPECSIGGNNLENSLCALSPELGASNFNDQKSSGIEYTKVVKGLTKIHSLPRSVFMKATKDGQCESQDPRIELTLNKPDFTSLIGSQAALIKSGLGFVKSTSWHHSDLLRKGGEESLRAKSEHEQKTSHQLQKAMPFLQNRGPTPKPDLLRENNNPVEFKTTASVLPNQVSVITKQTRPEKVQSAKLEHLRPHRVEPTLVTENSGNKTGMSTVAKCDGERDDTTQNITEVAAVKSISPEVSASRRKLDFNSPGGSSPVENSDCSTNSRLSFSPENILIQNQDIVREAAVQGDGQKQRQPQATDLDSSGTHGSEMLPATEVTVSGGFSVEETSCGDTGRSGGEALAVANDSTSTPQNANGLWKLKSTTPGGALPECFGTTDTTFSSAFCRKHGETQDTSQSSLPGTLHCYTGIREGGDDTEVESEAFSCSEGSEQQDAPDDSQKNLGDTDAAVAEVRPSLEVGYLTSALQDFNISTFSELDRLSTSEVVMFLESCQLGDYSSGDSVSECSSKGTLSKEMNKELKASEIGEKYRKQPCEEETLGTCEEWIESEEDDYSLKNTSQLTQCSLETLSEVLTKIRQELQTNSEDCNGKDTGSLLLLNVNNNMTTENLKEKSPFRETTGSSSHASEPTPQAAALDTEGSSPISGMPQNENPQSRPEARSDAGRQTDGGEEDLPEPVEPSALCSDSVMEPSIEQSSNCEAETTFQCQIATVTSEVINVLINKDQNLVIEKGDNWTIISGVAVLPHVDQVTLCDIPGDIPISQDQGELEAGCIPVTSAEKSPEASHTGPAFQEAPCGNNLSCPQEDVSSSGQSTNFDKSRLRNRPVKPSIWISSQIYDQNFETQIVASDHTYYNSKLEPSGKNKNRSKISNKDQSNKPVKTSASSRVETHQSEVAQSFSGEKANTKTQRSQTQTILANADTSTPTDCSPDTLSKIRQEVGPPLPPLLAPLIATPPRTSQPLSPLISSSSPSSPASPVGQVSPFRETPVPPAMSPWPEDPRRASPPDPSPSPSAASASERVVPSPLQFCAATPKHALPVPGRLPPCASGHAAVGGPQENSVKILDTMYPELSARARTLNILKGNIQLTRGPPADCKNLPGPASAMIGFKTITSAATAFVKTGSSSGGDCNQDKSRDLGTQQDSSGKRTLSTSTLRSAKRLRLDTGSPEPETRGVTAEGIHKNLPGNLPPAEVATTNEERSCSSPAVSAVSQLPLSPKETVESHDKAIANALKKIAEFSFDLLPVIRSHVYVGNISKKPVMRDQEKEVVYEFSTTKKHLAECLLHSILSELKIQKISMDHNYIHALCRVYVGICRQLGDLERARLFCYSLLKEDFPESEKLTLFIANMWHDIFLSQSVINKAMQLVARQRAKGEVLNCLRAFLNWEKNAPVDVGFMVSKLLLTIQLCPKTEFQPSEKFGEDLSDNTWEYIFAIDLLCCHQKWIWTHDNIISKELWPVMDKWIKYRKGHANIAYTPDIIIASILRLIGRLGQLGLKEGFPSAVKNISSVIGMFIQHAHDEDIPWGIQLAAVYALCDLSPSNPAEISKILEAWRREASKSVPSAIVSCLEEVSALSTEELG
UniProt Q9UL03, 238-266: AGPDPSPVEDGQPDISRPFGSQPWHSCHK
UniProt A2RU49: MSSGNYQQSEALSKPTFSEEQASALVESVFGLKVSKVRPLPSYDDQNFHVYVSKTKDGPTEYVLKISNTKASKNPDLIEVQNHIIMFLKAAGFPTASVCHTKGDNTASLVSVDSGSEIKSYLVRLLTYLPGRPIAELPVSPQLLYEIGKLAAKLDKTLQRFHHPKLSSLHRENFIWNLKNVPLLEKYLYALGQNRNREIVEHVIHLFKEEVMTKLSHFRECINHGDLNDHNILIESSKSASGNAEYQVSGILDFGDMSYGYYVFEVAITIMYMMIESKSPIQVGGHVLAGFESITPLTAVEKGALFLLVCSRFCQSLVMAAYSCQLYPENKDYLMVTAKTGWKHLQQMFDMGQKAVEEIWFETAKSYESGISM
UniProt Q9Y6M1, 233-256: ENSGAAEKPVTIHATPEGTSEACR

Each target was assayed with ClCC(=O)N[C@H]1CCCc2ccccc12 (assay: log2 mean competition ratio of IA-DTB cysteine labelling (DMSO/compound) (log2 ratio); higher = stronger cysteine engagement by compound). Conditions: 50 µM; treatment time: 4 h; cell line lysate: HEK293T.
Description: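 IA-DTB competitive cysteine chemoproteomics in HEK293T RIPA lysate. Lysates were treated with compound 29 or 30 at 50 or 200 µM for 4 h, then IA-DTB (500 µM, 1 h), trypsin-digested, NeutrAvidin-enriched and analysed by diaPASEF. Competition ratio = intensity DMSO / intensity compound (n=4 treated, n=64 DMSO); binding: mean log2 CR ≥ 1 and p ≤ 0.05 plus QC filters. Target is the cysteine site.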

Target | log2 mean competition ratio
IMPA2 C152 (UniProt O14732) | 0.097
HUWE1 C689 | -0.368
HPS5 C200 (UniProt Q9UPZ3) | 0.16
HTATSF1 C480 (UniProt O43719) | 0.0615
IPO7 C749 (UniProt O95373) | 0.844
INTS1 C1440 (UniProt Q8N201) | 0.288
IPO13 C309 (UniProt O94829) | -0.182
ICE1 C228 (UniProt Q9Y2F5) | -0.0726
HSPH1 C245 | -0.14
HPCAL4 C187 | 0.297
INF2 C172 (UniProt Q27J81) | -0.0881
INTS6 C264 (UniProt Q9UL03) | 1.19
IPO9 C90 (UniProt Q96P70) | -0.287
HPS1 C561 (UniProt Q92902) | 0.398
HYKK C99 (UniProt A2RU49) | 0.633
INPP5K C173 (UniProt Q9BT40) | 0.11
HTATSF1 C295 (UniProt O43719) | -0.00847
IGF2BP2 C255 (UniProt Q9Y6M1) | -0.245
ICE1 C265 (UniProt Q9Y2F5) | -0.0105
HTATSF1 C471 (UniProt O43719) | 0.127

Same assay, conditions: 200 µM; treatment time: 4 h; cell line lysate: HEK293T

Target | log2 mean competition ratio
IMPA2 C152 (UniProt O14732) | -0.0418
HUWE1 C689 | -0.0753
HPS5 C200 (UniProt Q9UPZ3) | 0.239
HTATSF1 C480 (UniProt O43719) | 0.0806
IPO7 C749 (UniProt O95373) | 0.0801
INTS1 C1440 (UniProt Q8N201) | 0.107
IPO13 C309 (UniProt O94829) | 0.222
ICE1 C228 (UniProt Q9Y2F5) | 0.187
HSPH1 C245 | -0.195
HPCAL4 C187 | 0.128
INF2 C172 (UniProt Q27J81) | -0.153
INTS6 C264 (UniProt Q9UL03) | 0.141
IPO9 C90 (UniProt Q96P70) | -0.088
HPS1 C561 (UniProt Q92902) | -0.221
HYKK C99 (UniProt A2RU49) | -0.237
INPP5K C173 (UniProt Q9BT40) | -0.0586
HTATSF1 C295 (UniProt O43719) | -0.134
IGF2BP2 C255 (UniProt Q9Y6M1) | -0.085
ICE1 C265 (UniProt Q9Y2F5) | -0.118
HTATSF1 C471 (UniProt O43719) | 0.518
